The values below come from article PMC4741384 (2016).

Amino acid sequences for entries named in this document (tags omitted).
UniProt O95271: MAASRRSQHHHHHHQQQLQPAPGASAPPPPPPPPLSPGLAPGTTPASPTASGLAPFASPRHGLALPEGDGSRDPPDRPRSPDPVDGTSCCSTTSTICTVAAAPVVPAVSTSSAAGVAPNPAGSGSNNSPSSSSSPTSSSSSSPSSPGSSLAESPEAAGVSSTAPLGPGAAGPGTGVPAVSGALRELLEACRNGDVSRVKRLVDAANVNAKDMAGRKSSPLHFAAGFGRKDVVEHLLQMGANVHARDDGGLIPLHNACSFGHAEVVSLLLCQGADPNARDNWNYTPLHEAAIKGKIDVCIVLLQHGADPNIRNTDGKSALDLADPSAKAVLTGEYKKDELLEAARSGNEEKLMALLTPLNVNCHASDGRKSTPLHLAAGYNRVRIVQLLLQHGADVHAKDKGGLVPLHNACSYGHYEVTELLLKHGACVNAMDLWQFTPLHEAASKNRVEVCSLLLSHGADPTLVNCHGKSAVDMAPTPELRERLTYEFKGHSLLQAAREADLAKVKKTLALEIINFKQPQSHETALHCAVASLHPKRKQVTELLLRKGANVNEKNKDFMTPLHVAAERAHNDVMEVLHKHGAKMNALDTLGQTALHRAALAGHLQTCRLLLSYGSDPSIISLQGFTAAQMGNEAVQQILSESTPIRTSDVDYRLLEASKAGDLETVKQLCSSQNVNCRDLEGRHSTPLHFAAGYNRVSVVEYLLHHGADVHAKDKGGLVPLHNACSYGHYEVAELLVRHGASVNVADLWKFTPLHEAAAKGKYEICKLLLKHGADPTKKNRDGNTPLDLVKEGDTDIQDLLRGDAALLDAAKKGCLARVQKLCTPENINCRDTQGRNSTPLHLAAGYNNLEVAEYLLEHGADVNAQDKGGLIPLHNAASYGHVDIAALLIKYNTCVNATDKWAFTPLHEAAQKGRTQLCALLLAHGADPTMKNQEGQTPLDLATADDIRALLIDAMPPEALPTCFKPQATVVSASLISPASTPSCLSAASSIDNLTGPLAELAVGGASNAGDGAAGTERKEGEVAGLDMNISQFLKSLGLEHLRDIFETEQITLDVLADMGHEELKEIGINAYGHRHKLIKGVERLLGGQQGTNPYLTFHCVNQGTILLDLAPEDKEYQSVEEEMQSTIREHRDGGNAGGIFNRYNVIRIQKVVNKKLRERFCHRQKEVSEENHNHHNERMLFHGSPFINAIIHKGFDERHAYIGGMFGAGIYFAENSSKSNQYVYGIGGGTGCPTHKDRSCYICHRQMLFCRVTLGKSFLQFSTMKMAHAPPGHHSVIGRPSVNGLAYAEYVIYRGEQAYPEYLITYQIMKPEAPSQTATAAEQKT

The experiment concerns the target FN-TNKS1 (flag tag and NLS signal, pCDNA 3.1) (human) (UniProt O95271). As to the kind of experiment: co-IP; HEK293T cells co-transfected with mCherry-lacR constructs and FN-TNKS1; extracts in TENT buffer (25 mM Tris-HCl 7.5, 2 mM EDTA, 150 mM NaCl, 1% Triton X-100); immunoprecipitation with anti-Flag M2, blot with anti-lacR.

These are yes or no findings as the source states them, for the method shown. In cells and extracts the contact can be indirect. Some binding calls cover weakened binding; strength is not graded here.

B1: mCherry-lacR-interII (MDC1 800-1130aa) (domain or fragment, UniProt Q14676 800-1130)
chain: MGIQGRGRQTVDKVMGIPKETAERVGPERGPLERETEKLLPERQTDVTGEEELTKGKQDREQKQLLARDTQRQESDKNGESASPERDRESLKVEIETSEEIQEKQVQKQTLPSKAFEREVERPVANRECDPAELEEKVPKVILERDTQRGEPEGGSQDQKGQASSPTPEPGVGAGDLPGPTSAPVPSGSQSGGRGSPVSPRRHQKGLLNCKMPPAEKASRIRAAEKVSRGDQESPDACLPPTVPEAPAPPQKPLNSQSQKHLAPPPLLSPLLPSIKPTVRKTRQDGSQEAPEAPLSSELEPFHPKPKIRTRKSSRMTPFPATSAAPEPHPS
B1: the binding result is reported as “binds”.

B2: mCherry-lacR-BRCTs (MDC1 1881-2089aa) (domain or fragment, UniProt Q14676 1881-2089)
chain: LRRTKLNQESTAPKVLFTGVVDARGERAVLALGGSLAGSAAEASHLVTDRIRRTVKFLCALGRGIPILSLDWLHQSRKAGFFLPPDEYVVTDPEQEKNFGFSLQDALSRARERRLLEGYEIYVTPGVQPPPPQMGEIISCCGGTYLPSMPRSYKPQRVVITCPQDFPHCSIPLRVGLPLLSPEFLLTGVLKQEAKPEAFVLSPLEMSST
Consider B2, for which the binding entry is “binds”.
